The match of structure and compound is tentative.
Target: recombinant human c-MET kinase enzyme domain (Homo sapiens, UniProt P08581)
Assay: c-MET receptor tyrosine kinase Homogeneous Time Resolved Fluorescence assay (HTRF)
Settings: read-out: Biological Activity in Biological Example 1 and/or 2 (mean IC50), Biological Example 1 and/or Biological Example 2
Text: Recombinant c-Met kinase domain (amino acids 960-1390) was produced in a baculovirus expression vector as an N-terminal His-tagged fusion protein and purified on a NiNTA column. The resulting purified enzyme was then used in the following c-Met Homogeneous Time Resolved Fluorescence assay (HTRF) to find compounds of the invention and to perform initial activity determinations. Specifically, this assay measures the ability of compounds of the invention to inhibit the phosphorylation of a randomly synthesized, biotinylated heterocopolymeric polypeptide composed of glutamic acid and tyrosine, with an average length of 100 aa. The assay analyzes the amount of phosphorylated polypeptide produced. […]
The formation of phosphorylated heterocopolymeric, biotinylated polypeptide was quantified with the HTRF assay technology using an anti-phosphotyrosine antibody, PT66, conjugated to europium cryptate, mixed with a streptavidin-XL665 conjugate. […]

The chains behind the UniProt entries cited, without tags or fusion partners. Residues count along the entry.
UniProt P08581, 960-1390 limits assumed: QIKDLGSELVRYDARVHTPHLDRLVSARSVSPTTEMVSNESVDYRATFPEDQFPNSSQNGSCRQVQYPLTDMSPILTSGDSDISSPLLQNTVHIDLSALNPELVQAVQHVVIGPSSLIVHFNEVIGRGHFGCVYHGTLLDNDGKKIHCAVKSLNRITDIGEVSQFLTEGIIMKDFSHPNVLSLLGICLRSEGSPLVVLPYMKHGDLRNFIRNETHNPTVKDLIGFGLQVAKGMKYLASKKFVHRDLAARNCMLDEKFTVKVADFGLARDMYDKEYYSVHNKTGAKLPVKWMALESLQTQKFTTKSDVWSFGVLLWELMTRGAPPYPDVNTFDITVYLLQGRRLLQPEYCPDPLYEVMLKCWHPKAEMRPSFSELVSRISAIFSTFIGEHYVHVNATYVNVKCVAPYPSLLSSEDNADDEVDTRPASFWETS

| Compound | IC50 |
| --- | --- |
| CC1=C(C#N)C(c2ccc3[nH]ncc3c2)C(C#N)=C(c2ccc(C(=O)O)cc2)N1 (centres unmarked) | < 100 nM |
| CC1=C(C#N)C(c2ccc3c(c2)c(N)nn3Cc2ccc(N)cc2)C(C#N)=C(C)N1 | 500 to 2500 nM |

Reference: patent US8198456B2, “Dihydropyridine derivatives as useful as protein kinase inhibitors” (Bayer Intellectual Property GmbH, priority 2006, dated 2012)
